For at least one entry, the source does not settle the construct or the ends of the probe. At least one verdict was read from the data and is not stated in words by the source.
What was measured:
PARP2 WT (human) = PARP2 WT (human) (UniProt Q9UGN5); assay: fluorescence polarization; conditions: 5 uM HPF1, Kd curve only in figure; 5'-phosphate; residues 1-583
[1] = biological target: PARP2 SA (no ser) (human) (UniProt Q9UGN5); assay: fluorescence polarization; conditions: 5'-phosphate, residues 1-583

Sequences of proteins named here, by UniProt entry; tags and fusion partners are left off. A change or cut given only in a name is not applied to a line headed by its entry.
UniProt Q9UGN5: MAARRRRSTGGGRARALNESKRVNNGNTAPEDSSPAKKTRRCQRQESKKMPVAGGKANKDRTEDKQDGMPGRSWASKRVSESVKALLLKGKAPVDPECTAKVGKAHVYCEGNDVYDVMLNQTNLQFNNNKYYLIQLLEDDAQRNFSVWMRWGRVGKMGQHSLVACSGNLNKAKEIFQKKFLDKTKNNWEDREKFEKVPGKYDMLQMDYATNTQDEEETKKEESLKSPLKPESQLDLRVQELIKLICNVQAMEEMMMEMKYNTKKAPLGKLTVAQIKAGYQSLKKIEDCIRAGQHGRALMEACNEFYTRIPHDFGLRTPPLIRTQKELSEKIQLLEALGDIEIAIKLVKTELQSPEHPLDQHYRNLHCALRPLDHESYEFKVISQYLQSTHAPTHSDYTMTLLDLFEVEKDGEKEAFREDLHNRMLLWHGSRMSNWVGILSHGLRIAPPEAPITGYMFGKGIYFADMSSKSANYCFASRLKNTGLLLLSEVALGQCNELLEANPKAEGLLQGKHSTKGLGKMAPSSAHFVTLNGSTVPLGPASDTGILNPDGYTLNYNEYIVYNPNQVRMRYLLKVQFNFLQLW

Measured: binding result

GGAAGTCTTTTGACTTCCTCGAAGCTTTTGCTTCGA [fluorescein-labelled nicked dumbbell DNA, 5'-phosphate]
binds: PARP2 WT (human) | [1]; 5 uM HPF1, Kd curve only in figure | [1]; no HPF1, Kd curve only in figure

From publication doi:10.1101/2025.07.01.662498
